Results published in PMC10558657.

Columns and labels:
[1] = target: T1, HA-IRHOM2 WT (human) (UniProt Q6PJF5); test: co-IP; THLE2 cells transfected with Flag- and HA-tagged IRHOM2 and ZDHHC3 (whole or truncated); blots with anti-HA or anti-Flag
T1 sequence: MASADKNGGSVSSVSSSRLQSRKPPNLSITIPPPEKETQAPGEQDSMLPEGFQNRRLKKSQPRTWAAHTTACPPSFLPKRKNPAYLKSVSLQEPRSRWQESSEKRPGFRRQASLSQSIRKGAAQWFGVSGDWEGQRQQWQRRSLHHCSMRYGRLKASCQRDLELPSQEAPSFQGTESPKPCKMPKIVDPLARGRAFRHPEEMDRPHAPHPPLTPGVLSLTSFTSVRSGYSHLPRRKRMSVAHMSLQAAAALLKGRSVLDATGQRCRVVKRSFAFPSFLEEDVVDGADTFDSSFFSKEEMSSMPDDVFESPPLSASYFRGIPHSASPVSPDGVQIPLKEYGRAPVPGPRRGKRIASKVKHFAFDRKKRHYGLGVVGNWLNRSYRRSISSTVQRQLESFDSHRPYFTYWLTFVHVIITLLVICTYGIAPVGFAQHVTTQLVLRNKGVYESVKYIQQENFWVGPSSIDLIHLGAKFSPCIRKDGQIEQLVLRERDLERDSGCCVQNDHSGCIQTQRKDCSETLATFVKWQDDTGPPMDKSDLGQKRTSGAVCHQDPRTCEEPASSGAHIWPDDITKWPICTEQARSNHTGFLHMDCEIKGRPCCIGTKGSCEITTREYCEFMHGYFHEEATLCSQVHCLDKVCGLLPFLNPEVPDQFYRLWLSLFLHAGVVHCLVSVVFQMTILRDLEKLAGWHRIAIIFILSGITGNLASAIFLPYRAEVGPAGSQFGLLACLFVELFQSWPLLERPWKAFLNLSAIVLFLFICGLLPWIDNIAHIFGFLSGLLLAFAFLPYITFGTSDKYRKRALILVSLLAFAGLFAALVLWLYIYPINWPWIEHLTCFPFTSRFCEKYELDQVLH

[2] = target: GST-ZDHHC3 (UniProt Q9NYG2); test: pull-down; GST pull-down (MagneGST kit): GST fusion from E. coli extract on GST particles 1 h at 4 °C, then His-tagged partner for 5 h; elution and western blot; both purified
[3] = target: GST-IRHOM2 (UniProt Q6PJF5); test: as above

binding [1]: no binding
Molecule: Flag-ZDHHC3 △PDZ (human) (domain or fragment)

binding [2]: binds
B1: His-IRHOM2 (protein, UniProt Q6PJF5 1-856)
chain: T1 sequence

binding [3]: binds
B2: His-ZDHHC3 (enzyme, UniProt Q9NYG2 1-299)
chain: MMLIPTHHFRNIERKPEYLQPEKCVPPPYPGPVGTMWFIRDGCGIACAIVTWFLVLYAEFVVLFVMLIPSRDYVYSIINGIVFNLLAFLALASHCRAMLTDPGAVPKGNATKEFIESLQLKPGQVVYKCPKCCSIKPDRAHHCSVCKRCIRKMDHHCPWVNNCVGENNQKYFVLFTMYIALISLHALIMVGFHFLHCFEEDWTKCSSFSPPTTVILLILLCFEGLLFLIFTSVMFGTQVHSICTDETGIEQLKKEERRWAKKTKWMNMKAVFGHPFSLGWASPFATPDQGKADPYQYVV

No constants are given. Whether binding was seen depends on the method and setting. Binding seen in cells or lysates may run through a third protein. For part of these data: A result given as binding can be weak or reduced; the word gives no strength. Where a sequence is shown, tags or fusion partners need not be part of it. Each block holds one molecule with its values, some of them ahead of it.
